Among all 290,000 compounds or so, about 110 (0.038%) were called active. This list was built around the results that the source calls inconclusive (neither active nor inactive); the mix of calls is not that of the screen. The call rests on the fitted dose curve; in most records, active means well fitted inhibition curve with a large enough effect in the polarisation, with a control signal flat (not every such curve was filed as active); inconclusive means small, poorly fitted or top-dose-only effect, or effect the other way, or a change in a side signal; inactive means no such curve, though single readings can be large or run the other way; the % refers to the polarisation. A potency beside an inconclusive call is a rough fit, not a confirmed value. A note “side channel” means that the fit belongs to a control or component signal, not to the main read-out.
target: Histone-lysine N-methyltransferase 2A (Homo sapiens) (UniProt Q03164); test: qHTS Fluorescence Polarization Assay for Inhibitors of MLL CXXC domain - DNA interaction; details: MLL-CXXC / FITC-HOXA9 DNA fluorescence polarization; activity change, negative = inhibition: at 115 µM (top of the series)
Outline: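 Fluorescence polarization: 7 uM MLL-CXXC (stock) preincubated 5 min with compounds, then 50 nM fluorescein-HOX-A9 DNA (stock) added; 30 min ambient. Buffer 50 mM Tris-HCl pH 7.5, 50 mM NaCl, 1 mM DTT, 0.05% BSA.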
Potency means the concentration at half of the fitted maximal effect.

Sequences of proteins named here, by UniProt entry; tags and fusion partners are left off.
UniProt Q03164, whole entry, looked up: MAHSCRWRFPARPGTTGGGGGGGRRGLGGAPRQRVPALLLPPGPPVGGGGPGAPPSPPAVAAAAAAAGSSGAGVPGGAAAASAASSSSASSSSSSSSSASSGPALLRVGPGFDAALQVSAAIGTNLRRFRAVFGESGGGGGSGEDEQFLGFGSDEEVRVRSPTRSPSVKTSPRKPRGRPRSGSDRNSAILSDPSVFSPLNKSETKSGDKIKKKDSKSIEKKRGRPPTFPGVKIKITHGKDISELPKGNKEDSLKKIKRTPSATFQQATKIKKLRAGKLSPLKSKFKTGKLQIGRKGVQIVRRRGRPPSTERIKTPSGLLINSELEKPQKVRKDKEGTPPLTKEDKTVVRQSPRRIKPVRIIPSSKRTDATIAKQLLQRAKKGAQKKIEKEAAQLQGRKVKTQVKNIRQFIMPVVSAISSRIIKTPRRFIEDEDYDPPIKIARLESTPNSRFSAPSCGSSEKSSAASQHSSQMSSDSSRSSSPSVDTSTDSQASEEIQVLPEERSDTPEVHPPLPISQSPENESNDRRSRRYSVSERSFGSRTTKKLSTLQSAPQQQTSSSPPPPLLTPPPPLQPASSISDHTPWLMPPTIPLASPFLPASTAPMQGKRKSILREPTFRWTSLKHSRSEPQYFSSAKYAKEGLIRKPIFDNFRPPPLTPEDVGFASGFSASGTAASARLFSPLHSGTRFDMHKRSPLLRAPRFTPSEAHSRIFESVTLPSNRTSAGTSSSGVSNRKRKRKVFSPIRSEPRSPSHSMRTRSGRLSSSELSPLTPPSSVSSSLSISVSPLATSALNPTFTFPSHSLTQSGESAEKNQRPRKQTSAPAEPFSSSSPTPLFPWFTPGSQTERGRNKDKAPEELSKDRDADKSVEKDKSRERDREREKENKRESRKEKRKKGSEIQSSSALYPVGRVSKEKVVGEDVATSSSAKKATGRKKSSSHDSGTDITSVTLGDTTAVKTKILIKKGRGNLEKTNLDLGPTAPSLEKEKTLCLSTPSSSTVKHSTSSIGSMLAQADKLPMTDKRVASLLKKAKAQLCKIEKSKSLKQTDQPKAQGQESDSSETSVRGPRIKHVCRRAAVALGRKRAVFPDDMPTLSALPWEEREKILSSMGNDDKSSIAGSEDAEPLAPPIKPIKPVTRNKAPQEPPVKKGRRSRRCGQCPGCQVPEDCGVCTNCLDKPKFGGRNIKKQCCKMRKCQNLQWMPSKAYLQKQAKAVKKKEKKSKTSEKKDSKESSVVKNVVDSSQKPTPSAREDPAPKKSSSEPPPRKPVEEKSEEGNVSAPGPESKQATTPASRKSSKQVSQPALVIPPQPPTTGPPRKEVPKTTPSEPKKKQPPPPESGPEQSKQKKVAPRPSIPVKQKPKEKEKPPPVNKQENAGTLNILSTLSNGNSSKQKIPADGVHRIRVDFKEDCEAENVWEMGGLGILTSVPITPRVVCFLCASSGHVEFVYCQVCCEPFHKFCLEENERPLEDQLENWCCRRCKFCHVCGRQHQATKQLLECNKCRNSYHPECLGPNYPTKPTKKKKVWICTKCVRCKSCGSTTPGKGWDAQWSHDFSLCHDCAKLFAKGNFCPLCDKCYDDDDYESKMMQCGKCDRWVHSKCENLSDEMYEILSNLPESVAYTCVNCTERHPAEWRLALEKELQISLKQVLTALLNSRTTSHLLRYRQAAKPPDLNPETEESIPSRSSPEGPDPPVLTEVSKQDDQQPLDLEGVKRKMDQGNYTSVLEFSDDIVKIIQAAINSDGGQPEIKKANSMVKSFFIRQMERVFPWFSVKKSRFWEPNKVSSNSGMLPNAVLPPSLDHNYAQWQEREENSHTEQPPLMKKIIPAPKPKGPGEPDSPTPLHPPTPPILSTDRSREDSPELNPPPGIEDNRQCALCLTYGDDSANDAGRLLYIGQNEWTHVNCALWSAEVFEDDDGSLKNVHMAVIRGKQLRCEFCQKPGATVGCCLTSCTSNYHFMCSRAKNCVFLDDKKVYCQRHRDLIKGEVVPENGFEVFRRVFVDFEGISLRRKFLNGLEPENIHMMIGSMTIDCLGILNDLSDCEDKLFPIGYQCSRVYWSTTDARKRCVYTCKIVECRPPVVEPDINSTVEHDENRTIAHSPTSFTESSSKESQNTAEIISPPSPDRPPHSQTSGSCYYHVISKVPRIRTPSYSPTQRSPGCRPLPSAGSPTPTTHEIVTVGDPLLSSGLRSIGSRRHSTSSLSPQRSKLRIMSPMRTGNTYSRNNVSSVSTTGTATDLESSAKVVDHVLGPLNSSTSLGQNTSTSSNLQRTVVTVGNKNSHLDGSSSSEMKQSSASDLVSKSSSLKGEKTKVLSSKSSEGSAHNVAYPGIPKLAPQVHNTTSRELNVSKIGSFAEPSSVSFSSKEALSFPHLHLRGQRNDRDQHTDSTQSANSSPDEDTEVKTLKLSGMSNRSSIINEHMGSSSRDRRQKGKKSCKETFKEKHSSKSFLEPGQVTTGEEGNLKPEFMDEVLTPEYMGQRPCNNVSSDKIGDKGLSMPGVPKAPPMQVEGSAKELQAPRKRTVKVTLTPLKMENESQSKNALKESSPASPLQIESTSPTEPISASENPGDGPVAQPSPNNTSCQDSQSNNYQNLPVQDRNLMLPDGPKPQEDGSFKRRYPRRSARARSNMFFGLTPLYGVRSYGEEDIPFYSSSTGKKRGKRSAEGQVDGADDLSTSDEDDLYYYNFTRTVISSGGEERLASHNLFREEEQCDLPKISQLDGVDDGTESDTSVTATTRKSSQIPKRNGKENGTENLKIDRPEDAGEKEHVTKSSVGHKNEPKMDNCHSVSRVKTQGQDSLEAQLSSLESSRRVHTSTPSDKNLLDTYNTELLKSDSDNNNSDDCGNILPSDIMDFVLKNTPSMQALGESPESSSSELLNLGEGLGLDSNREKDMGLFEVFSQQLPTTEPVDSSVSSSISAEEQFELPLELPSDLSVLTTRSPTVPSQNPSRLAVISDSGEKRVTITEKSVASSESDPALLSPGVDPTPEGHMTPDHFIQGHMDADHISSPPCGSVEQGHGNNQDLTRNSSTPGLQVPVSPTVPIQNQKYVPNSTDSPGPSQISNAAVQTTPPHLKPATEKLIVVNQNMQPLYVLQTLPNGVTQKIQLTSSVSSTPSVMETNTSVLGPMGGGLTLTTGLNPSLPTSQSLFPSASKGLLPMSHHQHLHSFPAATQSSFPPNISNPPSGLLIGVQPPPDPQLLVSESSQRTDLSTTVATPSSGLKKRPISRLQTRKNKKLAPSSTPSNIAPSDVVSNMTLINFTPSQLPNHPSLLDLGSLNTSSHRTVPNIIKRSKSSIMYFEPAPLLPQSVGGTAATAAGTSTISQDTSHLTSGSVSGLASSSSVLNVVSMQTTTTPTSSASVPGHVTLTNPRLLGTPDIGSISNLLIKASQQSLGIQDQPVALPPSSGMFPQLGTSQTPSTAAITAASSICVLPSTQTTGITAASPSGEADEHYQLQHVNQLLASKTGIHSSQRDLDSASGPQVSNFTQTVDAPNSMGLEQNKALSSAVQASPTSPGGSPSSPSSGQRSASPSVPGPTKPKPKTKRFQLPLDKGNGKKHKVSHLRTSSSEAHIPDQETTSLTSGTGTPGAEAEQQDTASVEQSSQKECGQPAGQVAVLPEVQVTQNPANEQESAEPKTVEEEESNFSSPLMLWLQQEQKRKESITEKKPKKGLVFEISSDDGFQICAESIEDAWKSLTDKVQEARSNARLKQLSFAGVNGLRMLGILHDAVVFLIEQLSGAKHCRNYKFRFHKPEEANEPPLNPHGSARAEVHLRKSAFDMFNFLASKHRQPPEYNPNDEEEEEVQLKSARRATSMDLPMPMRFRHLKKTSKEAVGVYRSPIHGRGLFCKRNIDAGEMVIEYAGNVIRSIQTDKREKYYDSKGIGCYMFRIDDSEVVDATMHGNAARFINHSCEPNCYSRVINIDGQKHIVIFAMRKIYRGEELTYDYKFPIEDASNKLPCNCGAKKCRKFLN

| SMILES | Potency | activity change, negative = inhibition |
| --- | --- | --- |
| O=C(Nc1cnccn1)c1ccc(Cl)cc1 | inconclusive: 31.6 µM [fluorescent, side channel, partial curve] | – |
| COc1ccc(NC(=S)NCC(c2cccnc2)N2CCOCC2)cc1 (stereo not drawn) | inconclusive: 1.41 µM [fluorescent, side channel, full curve] | – |
| COc1ccc(C)cc1NC(=O)NCc1ccc(F)cc1 | inconclusive: 35.5 µM [inhibitor, single point] | – |
| O=C(NC(=S)NCC1CCCO1)c1ccc([N+](=O)[O-])cc1 (stereo not drawn) | inconclusive: 1.26 µM [fluorescent, side channel, full curve, poor fit] | – |
| C/C(=N\NC(=O)CNC(=O)c1ccco1)c1ccc(Br)cc1 | inconclusive: 89.1 µM [quencher, side channel, single point] | – |
| COC(=O)c1ccc(Cn2nc(C)c(Cl)c2C)o1 | inconclusive: 10 µM [inhibitor, single point] | – |
| CC1Cc2ccccc2N1S(=O)(=O)c1cccc(C(=O)NCCCn2ccnc2)c1 (stereo not drawn) | inconclusive: 1.26 µM [fluorescent, side channel, full curve, poor fit] | – |
| O=C1C2C(c3ccccc3)CC=CC2[C@H](c2ccc(C(F)(F)F)cc2)N1Cc1ccccc1 (stereo partly drawn) | inconclusive: 11.2 µM [inhibitor, partial curve] | – |
| COc1ccc(Cn2c(O)c(/C=N/NC(=O)c3cccnc3)c3ccccc3c2=O)cc1 | inconclusive: 14.1 µM [fluorescent, side channel, partial curve] | – |
| Nc1nc2ccccc2n1/N=C/c1ccc(-c2ccccc2)o1 | – | inactive: 18.7% |
| CN1CCN(Cc2nc(Cc3cccc(F)c3)no2)CC1c1ccccc1 (stereo not drawn) | inconclusive: 8.91 µM [inhibitor, single point] | – |
| COCC(C)NC(=O)c1cc(S(=O)(=O)N2CCCCC2)ccc1N1CCOCC1 (stereo not drawn) | – | inconclusive: -7.57% [phenotype inactive] |
| CCCCCn1c(N2CCN(Cc3ccccc3)CC2)nc2c1c(=O)[nH]c(=O)n2C | – | inactive: -0.166% |
| CCCCN(CC)Cc1ccc(CNC(=S)Nc2cccc(F)c2)o1 | inconclusive: 1.41 µM [fluorescent, side channel, full curve, poor fit] | – |
| O=C(Nc1ccncc1)c1ccc2c(c1)S(=O)(=O)c1ccccc1C2=O | inconclusive: 70.8 µM [fluorescent, side channel, single point] | – |
| CS(=O)(=O)N(CC(=O)Nc1cccnc1)c1ccc2c(c1)OCO2 | inconclusive: 10 µM [quencher, side channel, single point] | – |
| CC(c1ccccc1)N1CC(C(=O)O)CC1=O (stereo not drawn) | inconclusive: 14.1 µM [fluorescent, side channel, single point] | – |
| Cc1ccc(Nc2nc(NCCO)c3ccccc3n2)cc1C | inconclusive: 28.2 µM [quencher, side channel, partial curve] | – |
| COc1cc(/C=N/NC(=O)c2ccc(Cl)c(S(N)(=O)=O)c2)ccc1OCC(N)=O | – | inactive: -2.35% |

Molecules listed so far with a Cl atom, in the order listed:

| SMILES | Potency | activity change, negative = inhibition |
| --- | --- | --- |
| O=C(Nc1cnccn1)c1ccc(Cl)cc1 | inconclusive: 31.6 µM [fluorescent, side channel, partial curve] | – |
| COC(=O)c1ccc(Cn2nc(C)c(Cl)c2C)o1 | inconclusive: 10 µM [inhibitor, single point] | – |
| COc1cc(/C=N/NC(=O)c2ccc(Cl)c(S(N)(=O)=O)c2)ccc1OCC(N)=O | – | inactive: -2.35% |

(next part)

| SMILES | Potency | activity change, negative = inhibition |
| --- | --- | --- |
| COc1cc(/C=C2\SC(=S)N(Nc3ncc(C(F)(F)F)cc3Cl)C2=O)cc(OC)c1OC | inconclusive: 70.8 µM [inhibitor, single point] | – |
| C=C(C)COc1ccc(-c2nc(N)ncc2-c2ccc(Br)cc2)c(O)c1 | inconclusive: 14.1 µM [inhibitor, single point] | – |
| CN(C)c1ccc(C(=O)OCC(=O)NCCCc2ccccc2)cc1 | inconclusive: 31.6 µM [fluorescent, single point] | – |
| Cc1c([N+](=O)[O-])cc(S(=O)(=O)Nc2ccncc2)cc1[N+](=O)[O-] | inconclusive: 25.1 µM [fluorescent, side channel, partial curve] | – |
| COc1cccc(-c2cc(C(F)(F)F)nc(-n3cccn3)n2)c1 | – | inactive: -8.2% |
| Cc1ccc(C(=O)c2coc3ccc(O)cc23)cc1 | inconclusive: 1.26 µM [fluorescent, side channel, full curve, poor fit] | – |
| CCOc1cccc(C(=O)Nc2ccc(NC(=O)c3cc4ccccc4o3)c(OC)c2)c1 | – | inactive: 29% |
| Cc1ccc(-n2cc(CN3CCC(O)(c4ccccn4)CC3)c(-c3ccc(F)cc3)n2)cc1 | – | inactive: 6.43% |
| CN(C)/C=C1\NC(=S)N(c2ccc(Cl)cc2)C1=O | inconclusive: 44.7 µM [fluorescent, side channel, single point] | – |
| O=C(NNc1c2ccccc2nc2ccccc12)c1ccc(O)cc1 | inconclusive: 10 µM [quencher, side channel, partial curve, poor fit] | – |
| O=S(=O)(Nc1ccc(Br)cc1)c1cccc2nonc12 | inconclusive: 1 µM [inhibitor, full curve, poor fit] | – |
| CC1=CC(=C(C#N)c2nc3ccccc3s2)C=C(C)N1Cc1ccco1 | inconclusive: 31.6 µM [fluorescent, side channel, partial curve] | – |
| O=C(NC(NNc1ccc([N+](=O)[O-])cc1)(C(F)(F)F)C(F)(F)F)c1ccccc1Cl | inconclusive: 15.8 µM [inhibitor, single point] | – |
| COc1ccc2nc(C)cc(NCc3ccc(F)cc3)c2c1 | inconclusive: 22.4 µM [fluorescent, side channel, partial curve] | – |
| COc1ccc(C2CC(c3ccccc3)=NN2C(=O)COC(=O)c2nc3nccc(C)n3n2)cc1 (stereo not drawn) | inconclusive: 63.1 µM [fluorescent, side channel, single point] | – |
| CCc1ccccc1NC(=O)NNC(=O)c1ccc2ccccc2c1O | inconclusive: 14.1 µM [fluorescent, side channel, single point] | – |
| CCN1/C(=C2/SC(=S)N(NC(C)=O)C2=O)Sc2ccc(OC)cc21 | inconclusive: 39.8 µM [fluorescent, side channel, single point] | – |
| Cc1ccc(NNC(=O)c2c(F)cccc2Cl)cc1C | – | inactive: -5.66% |
| CCOc1ccccc1NC(=O)Nc1cc(S(=O)(=O)N(C)C)ccc1C | inconclusive: 7.08 µM [quencher, side channel, full curve] | – |

From PubChem BioAssay AID2662 (National Center for Advancing Translational Sciences (NCATS), 2010)
